Measurements published in article doi:10.1101/2022.11.09.514853 (bioRxiv, 2022).
No constants are given. Whether binding was seen depends on the method and setting. For part of these data: Binding seen in cells or lysates may run through a third protein. Some results given as binding are weak or reduced against the parent protein; the word gives no strength.

Amino acid sequences for entries named in this document (tags omitted). A change or cut given only in a name is not applied to a line headed by its entry. Residues count along the entry.
UniProt O15399, whole entry, looked up, stated change not applied: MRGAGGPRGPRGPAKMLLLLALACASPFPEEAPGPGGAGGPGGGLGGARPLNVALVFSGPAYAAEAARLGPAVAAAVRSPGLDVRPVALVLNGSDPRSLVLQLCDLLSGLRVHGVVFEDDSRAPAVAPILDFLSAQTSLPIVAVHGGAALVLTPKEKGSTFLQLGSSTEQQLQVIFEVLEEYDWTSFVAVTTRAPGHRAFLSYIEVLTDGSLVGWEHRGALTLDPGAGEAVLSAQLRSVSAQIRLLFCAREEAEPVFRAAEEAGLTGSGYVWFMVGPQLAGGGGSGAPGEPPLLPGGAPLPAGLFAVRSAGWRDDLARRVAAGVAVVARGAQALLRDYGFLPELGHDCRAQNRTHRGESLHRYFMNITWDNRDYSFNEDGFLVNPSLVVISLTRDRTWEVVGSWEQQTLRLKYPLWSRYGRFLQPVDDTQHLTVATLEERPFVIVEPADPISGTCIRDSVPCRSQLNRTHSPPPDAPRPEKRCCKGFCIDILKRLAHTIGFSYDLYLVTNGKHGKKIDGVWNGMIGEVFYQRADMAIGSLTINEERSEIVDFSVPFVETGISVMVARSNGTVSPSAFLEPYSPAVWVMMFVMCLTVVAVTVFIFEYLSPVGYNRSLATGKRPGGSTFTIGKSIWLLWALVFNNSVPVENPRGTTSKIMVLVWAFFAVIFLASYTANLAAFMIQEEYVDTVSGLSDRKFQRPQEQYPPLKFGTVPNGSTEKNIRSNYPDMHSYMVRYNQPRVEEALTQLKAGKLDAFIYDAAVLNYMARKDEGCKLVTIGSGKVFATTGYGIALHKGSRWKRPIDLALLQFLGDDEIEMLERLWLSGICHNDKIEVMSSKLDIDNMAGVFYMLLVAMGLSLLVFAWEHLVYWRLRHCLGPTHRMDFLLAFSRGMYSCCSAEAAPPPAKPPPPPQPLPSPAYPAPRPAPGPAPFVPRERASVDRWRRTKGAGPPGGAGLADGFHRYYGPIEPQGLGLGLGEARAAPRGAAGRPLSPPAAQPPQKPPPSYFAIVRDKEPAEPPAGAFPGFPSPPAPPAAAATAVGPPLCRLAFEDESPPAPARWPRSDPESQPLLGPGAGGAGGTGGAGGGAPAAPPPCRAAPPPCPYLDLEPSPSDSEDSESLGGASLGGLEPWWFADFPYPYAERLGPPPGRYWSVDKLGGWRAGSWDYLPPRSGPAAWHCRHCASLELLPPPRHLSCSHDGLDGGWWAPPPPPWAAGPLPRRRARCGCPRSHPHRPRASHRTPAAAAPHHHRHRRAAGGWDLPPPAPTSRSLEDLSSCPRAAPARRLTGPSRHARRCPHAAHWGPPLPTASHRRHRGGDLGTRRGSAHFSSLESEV
UniProt Q00961, 20-839: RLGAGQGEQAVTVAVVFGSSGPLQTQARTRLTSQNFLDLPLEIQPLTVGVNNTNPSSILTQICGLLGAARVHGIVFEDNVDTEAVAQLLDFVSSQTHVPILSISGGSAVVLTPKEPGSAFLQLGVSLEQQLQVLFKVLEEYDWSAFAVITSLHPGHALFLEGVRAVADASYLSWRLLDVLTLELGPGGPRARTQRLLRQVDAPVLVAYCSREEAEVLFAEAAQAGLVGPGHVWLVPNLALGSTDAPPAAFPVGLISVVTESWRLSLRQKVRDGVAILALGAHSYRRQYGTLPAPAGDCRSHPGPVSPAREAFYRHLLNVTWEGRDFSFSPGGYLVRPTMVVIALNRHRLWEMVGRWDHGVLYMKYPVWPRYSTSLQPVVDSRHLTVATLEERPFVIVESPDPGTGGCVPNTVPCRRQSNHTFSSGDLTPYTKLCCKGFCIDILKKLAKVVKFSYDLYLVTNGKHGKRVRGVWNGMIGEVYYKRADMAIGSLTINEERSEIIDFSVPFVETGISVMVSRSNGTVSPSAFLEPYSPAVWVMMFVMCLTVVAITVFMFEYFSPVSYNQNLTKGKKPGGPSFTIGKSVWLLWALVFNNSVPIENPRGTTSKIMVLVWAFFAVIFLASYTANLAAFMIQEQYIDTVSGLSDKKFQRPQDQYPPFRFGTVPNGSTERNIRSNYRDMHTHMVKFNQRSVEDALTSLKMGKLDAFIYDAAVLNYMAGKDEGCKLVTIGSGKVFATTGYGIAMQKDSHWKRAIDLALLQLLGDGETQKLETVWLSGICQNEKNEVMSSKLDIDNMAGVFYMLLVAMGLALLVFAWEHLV

Legend:
[1] = target: human GluN2D, C-terminal domain truncated (M1-P879), Strep-tag II (human) (UniProt O15399); test: cryo-EM structure
[2] = target: human GluN1-1a E698C, full length (human) (UniProt Q05586); test: cross-linking
[3] = target: rat GluN2C (M1-V839), GFP and Strep-tag II, of the N1-N2A-N2C tri-receptor (rat) (UniProt Q00961); test: pull-down
[4] = target: human GluN2D S238C, full length (human) (UniProt O15399); test: cross-linking

Row | binding [1] | Substance | other results
1 | binds | human GluN1-1a, C-terminal domain truncated (M1-Q847) (from UniProt Q05586-1 19-847) (receptor) | –
2 | – | human GluN1-1a E698C, full length (from UniProt Q05586-1 19-938) (receptor) | binding [2]: binds
3 | – | rat GluN2A (M1-F841), GFP and 6×His tag, of the N1-N2A-N2C tri-receptor (from UniProt Q00959 23-841) | binding [3]: binds
4 | – | human GluN2D S238C, full length (from UniProt O15399 28-1336) (receptor) | binding [4]: binds
5 | binds | human GluN1-1b, C-terminal domain truncated (M1-Q868) (from UniProt Q05586-6 19-868) (receptor) | –
6 | binds | human GluN1-1a E698C, C-terminal domain deleted (from UniProt Q05586-1 19-847) (receptor) | –
